In publication PMC3234234, “A Host Small GTP-binding Protein ARL8 Plays Crucial Roles in Tobamovirus RNA Replication” (PLoS Pathogens, 2011):
These are yes or no findings as the source states them, for the method shown. In cells and extracts the contact can be indirect. A result given as binding can be weak or reduced; the word gives no strength. Tags and fused reporters may be left off the sequences shown.

Target: T1, C-terminally FLAG-StrepII-tagged NtARL8a (NtARL8a-FS) (Nicotiana tabacum) (UniProt H1AD87)
T1 sequence: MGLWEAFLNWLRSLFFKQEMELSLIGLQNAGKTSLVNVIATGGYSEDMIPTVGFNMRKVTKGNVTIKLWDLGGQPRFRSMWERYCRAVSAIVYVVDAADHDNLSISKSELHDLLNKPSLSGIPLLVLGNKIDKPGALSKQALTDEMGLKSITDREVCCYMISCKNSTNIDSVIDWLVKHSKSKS
Assay: co-IP; NtARL8a-FS immunopurified with anti-FLAG antibody from LPC-solubilized P15 membranes of NtARL8a-FS-expressing BY-2 cells, uninfected or ToMV-GFP-infected; immunoblots for ARL8, TOM1 and 130K/180K

Substance | binding
NtTOM1 (Nicotiana tabacum TOM1), endogenous | binds
ToMV 130K replication protein (Tomato mosaic virus) | binds
ToMV 180K replication protein (untagged) (Tomato mosaic virus) | binds
